{"source": "PubChem BioAssay AID623999", "about": "(Broad Institute, 2012)", "note": "The inconclusive results got no clear call from the source; some entries with a clear call stand among them for comparison. The source made the active and inactive calls.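 Rule for the calls: active = inhibition in every test run, with half-maximal concentration at most twice the top tested dose; inconclusive = the separate test runs disagree on their calls; inactive = every test run inactive, including opposite effects.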"}
{"molecular_target": "Cyclin-dependent kinase 5 (Homo sapiens) + Cyclin-dependent kinase 5 activator 1 (Homo sapiens) (UniProt Q00535+Q15078)", "assay": "CDK5-p25 kinase inhibition, dose response, selectivity assay for GSK3beta inhibitor project, biochemical, ADP-Glo luminescence, dry powder samples (AID 623999)", "conditions": "histone H1 peptide; at 46 µM (top of the series)"}
{"smiles": "COc1ccccc1C1C2=C(CC(C)(C)CC2=O)Nc2ccccc21", "note": "(configuration not stated)", "activity change, negative = inhibition": "inconclusive: -1.39%"}
{"smiles": "COc1ccccc1/C=C1\\C(=O)CC(C)(C)CC1=Nc1cc(C(F)(F)F)[nH]n1", "activity change, negative = inhibition": "inactive: 2.96%"}
{"smiles": "Cc1[nH]nc2c1C(c1ccc(C(F)(F)F)cc1)C1=C(CC(C)(C)CC1=O)N2", "note": "(configuration not stated)", "activity change, negative = inhibition": "inactive: -4.43%"}
{"smiles": "Cc1[nH]nc2c1[C@H](c1ccccc1C(F)(F)F)C1=C(CC(C)(C)CC1=O)N2", "activity change, negative = inhibition": "inconclusive: -33.7%"}
{"smiles": "CC1(C)CC(=O)/C(=C\\c2cccc(F)c2C(F)(F)F)C(=Nc2cc(C(F)(F)F)[nH]n2)C1", "activity change, negative = inhibition": "inactive: 7.6%"}
{"smiles": "O/N=C/c1cn(-c2ccccc2)nc1-c1ccc2c(c1)OCCO2", "activity change, negative = inhibition": "inconclusive: -35.4%"}
{"smiles": "CNC(=O)c1cn(-c2ccccc2)nc1-c1ccc(OC)cc1", "activity change, negative = inhibition": "inactive: 6.54%"}
